The text below walks through data of US20210024455A1 (priority 2018, published 2021).

Chains of the proteins cited; added tags and fusions are not shown. Lines headed by an entry give the natural chain unless they say otherwise; changes in a name come on top.
UniProt Q15554: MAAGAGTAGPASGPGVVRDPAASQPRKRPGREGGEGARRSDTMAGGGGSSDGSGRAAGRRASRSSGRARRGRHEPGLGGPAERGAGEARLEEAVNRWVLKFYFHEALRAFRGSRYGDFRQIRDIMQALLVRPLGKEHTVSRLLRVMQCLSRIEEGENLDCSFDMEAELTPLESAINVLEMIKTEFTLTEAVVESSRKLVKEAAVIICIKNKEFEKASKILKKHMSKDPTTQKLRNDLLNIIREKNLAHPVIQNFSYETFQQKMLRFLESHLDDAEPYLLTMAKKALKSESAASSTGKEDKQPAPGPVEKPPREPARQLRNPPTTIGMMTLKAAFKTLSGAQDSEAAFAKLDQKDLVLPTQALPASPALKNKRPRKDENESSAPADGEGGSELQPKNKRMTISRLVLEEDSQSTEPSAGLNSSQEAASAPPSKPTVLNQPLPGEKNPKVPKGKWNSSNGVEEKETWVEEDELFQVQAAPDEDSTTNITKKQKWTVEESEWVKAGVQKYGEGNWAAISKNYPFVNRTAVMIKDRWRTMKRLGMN

The exact form of at least one protein or probe is not confirmed.

The target of this data set is TRF2 (UniProt Q15554). Put plainly: binding assay.

Take “AGTTGAGTTAGGGTTAGGGTTAGGGTTAGGGCAGGCACCACACCATTCCC / GCGAGCGAGACACCGCCTGCCCTAACCCTAACCCTAACCCTAACTCAACT [T02D/05 (TLM-05/TLM-02-3D)]”: the binding result (DSE-FRET strand exchange with T01F/06, 25 C, TRF2 addition not explicitly described, label: 3' Dabcyl on TLM-02) is listed as “binds”.
In the case of “AGTTGAGTTAGGGTTAGGGTTAGGGTTAGGGCAGGCGGTGTCTCGCTCGC / GGGAATGGTGTGGTGCCTGCCCTAACCCTAACCCTAACCCTAACTCAACT [T01F/06 (TLM-01-5F/TLM-06)]”, for the setting “DSE-FRET strand exchange, binding inhibited by compounds at 50 uM (e.g. #198 62.2%, #224 71.7%), 150 mM KCl, 10 mM HEPES pH 7.9, 25 C, label: 5' FAM on TLM-01”, the binding result was “binds”.
